From US8372880B2, “Compositions and methods using same for treating amyloid-associated diseases” (Tel Aviv University Future Technology Development L.P., priority 2003, dated 2013)
For part of these data: The name of at least one read-out is uncertain. For part of these data: At least one compound was matched to its structure with a doubt left.

Sequences of proteins named here, by UniProt entry; tags and fusion partners are left off. A change or cut given only in a name is not applied to a line headed by its entry.
UniProt P10997: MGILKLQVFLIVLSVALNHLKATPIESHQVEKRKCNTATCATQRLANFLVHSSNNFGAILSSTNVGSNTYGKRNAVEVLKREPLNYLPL

Assays:
[1] = Pharmacokinetics in mice, oral administration; settings: orally or intravenously administered
[2] = biological target: T1, hIAPP20-29 (Homo sapiens, UniProt P10997); assay: Kinetic aggregation assay (turbidity); type: biochemical; settings: 1 mM peptide, 40 mM inhibitor, Tris pH 7.2, 4% DMSO
T1 construct: purchased Peptron, Inc. (Taejeon, Korea); host or cells: solid-phase chemical synthesis
Procedure: Stock solutions of hIAPP22-29 and hIAPP20-29 peptide were prepared by dilution of lyophilized peptides into 10 mM Tris-HCl (pH 7.2) buffer to a final concentration of 1 mM peptide and 4% DMSO. Turbidity data were collected at 405 or 560 nm at room temperature. A buffer solution containing the same amount of DMSO as the tested samples was used as blank. Turbidity was measured using disposable UVette cuvettes (Eppendorf, Germany) and a Scinco S-3100 spectrophotometer.
The core amyloidogenic fragments of hIAPP (hIAPP22-29, hIAPP20-29) aggregate in an aqueous solution. Such an aggregation behavior was served as a preliminary assay for amyloid formation.
In order to evaluate the ability of phenol red to inhibit amyloid formation, the aggregation of 1 mM hIAPP22-29 and hIAPP20-29 (SEQ ID NO: 1 and NO: 2, respectively) was examined in the absence or presence of 40 mM phenol red. To verify the specificity of phenol red molecule towards hIAPP core peptides, a very similar molecule—phenolphthaleine, which differs only by the lack of the sulfon group, was used as control (FIG. 7).

[3] = biological target: T2, hIAPP22-29 (Homo sapiens, UniProt P10997); assay: Kinetic aggregation assay (turbidity); type: biochemical; settings: 1 mM peptide, 40 mM phenol red, Tris pH 7.2, 4% DMSO
T2 construct: purchased Peptron, Inc. (Taejeon, Korea); host or cells: solid-phase chemical synthesis

| Molecule | bioavailability as compared with phenol red [1] | aggregation of hIAPP20-29 (turbidity) [2] | aggregation of hIAPP22-29 (turbidity) [3] |
| --- | --- | --- | --- |
| diacetoxy phenol red [PF3] | substantially improved bioavilability |  |  |
| O=S1(=O)OC(c2ccc(O)cc2)(c2ccc(O)cc2)c2ccccc21 [phenol red] |  | decreased aggregation | substantially terminated |
